Results reported in article PMC7760514 (Antibiotics, 2020).

Assay: general procedure: Fmoc solid-phase peptide synthesis; Tenta Gel R RAM resin (Rapp polymers, loading 0.2 mmol/g); HBTU/DIPEA
Conditions: whole synthesis, total yield

GKKYRRFRWKFKGKLFLFG-NH2
isolated yield: 16.2%
